Test results from the supplement of paper PMC7666118.
The list shows a part of the results.

By UniProt entry, the sequences of proteins in these tests, tags left out. Where a name states a change or a piece, a line headed by the entry shows the natural chain unless it says otherwise.
UniProt Q86SK9: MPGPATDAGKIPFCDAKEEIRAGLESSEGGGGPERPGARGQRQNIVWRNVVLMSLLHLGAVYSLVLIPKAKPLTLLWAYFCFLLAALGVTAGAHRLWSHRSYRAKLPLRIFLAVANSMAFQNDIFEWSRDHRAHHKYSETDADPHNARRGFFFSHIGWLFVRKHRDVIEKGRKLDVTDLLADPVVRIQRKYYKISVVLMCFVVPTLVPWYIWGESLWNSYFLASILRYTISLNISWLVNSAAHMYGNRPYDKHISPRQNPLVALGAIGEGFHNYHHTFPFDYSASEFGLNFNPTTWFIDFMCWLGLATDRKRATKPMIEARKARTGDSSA
UniProt O75298: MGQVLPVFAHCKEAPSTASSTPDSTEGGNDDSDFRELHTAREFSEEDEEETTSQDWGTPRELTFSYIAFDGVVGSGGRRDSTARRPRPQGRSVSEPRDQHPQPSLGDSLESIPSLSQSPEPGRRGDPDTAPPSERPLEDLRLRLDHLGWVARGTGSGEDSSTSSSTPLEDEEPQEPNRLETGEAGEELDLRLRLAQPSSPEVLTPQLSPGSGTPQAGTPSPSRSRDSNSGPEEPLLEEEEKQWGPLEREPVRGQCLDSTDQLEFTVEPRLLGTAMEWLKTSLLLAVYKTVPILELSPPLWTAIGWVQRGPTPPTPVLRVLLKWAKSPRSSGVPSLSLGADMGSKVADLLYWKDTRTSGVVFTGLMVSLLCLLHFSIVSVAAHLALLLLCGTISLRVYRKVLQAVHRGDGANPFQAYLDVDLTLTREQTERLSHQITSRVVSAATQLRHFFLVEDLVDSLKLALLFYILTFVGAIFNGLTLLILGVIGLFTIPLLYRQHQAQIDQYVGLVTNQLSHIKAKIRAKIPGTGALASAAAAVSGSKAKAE
UniProt Q92791: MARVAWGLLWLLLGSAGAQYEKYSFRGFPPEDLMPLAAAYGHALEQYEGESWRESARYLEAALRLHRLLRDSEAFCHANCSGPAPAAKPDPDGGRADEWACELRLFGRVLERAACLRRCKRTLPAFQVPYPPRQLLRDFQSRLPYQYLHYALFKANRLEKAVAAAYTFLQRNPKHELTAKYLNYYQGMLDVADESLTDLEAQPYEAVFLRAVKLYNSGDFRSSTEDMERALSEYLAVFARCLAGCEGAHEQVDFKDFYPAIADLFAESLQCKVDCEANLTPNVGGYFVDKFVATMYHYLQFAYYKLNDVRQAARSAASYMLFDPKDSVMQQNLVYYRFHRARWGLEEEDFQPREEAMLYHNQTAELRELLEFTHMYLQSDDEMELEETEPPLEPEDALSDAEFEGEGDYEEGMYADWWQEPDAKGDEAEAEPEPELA
UniProt Q96ER3: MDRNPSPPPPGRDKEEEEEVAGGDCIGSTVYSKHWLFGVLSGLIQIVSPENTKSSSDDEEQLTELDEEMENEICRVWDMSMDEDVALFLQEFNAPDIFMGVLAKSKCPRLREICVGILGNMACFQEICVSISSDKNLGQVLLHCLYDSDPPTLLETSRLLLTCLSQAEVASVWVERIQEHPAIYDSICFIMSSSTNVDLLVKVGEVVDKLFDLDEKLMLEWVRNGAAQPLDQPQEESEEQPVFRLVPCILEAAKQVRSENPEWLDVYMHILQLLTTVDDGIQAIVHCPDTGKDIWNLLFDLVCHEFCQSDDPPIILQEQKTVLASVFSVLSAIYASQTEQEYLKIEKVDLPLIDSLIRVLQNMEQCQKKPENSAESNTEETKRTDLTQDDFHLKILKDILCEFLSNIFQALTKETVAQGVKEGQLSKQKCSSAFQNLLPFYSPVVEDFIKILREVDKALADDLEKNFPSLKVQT
UniProt O75170: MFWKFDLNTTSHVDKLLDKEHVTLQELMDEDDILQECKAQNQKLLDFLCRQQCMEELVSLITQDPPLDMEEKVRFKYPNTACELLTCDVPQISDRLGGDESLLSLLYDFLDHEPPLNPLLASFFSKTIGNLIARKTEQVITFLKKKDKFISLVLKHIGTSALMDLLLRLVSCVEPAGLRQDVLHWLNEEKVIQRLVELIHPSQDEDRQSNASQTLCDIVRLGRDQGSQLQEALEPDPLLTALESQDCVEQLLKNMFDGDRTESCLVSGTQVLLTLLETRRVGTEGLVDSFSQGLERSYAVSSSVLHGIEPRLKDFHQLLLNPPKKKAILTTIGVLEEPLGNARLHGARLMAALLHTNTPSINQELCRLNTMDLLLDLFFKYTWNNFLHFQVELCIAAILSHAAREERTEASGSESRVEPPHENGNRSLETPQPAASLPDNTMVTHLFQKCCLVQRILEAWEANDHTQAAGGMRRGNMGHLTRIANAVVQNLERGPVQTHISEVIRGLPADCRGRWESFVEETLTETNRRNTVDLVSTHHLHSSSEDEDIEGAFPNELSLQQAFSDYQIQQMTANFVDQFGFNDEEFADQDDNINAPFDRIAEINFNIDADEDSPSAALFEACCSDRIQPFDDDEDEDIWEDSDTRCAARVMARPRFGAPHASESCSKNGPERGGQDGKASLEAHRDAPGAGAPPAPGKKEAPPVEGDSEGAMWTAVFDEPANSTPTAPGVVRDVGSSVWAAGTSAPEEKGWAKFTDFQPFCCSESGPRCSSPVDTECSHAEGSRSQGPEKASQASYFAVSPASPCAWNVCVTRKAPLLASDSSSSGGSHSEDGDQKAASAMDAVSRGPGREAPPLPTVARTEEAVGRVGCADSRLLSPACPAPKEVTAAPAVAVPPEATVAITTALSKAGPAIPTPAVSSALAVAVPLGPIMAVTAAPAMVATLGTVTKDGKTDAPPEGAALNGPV
UniProt Q99442: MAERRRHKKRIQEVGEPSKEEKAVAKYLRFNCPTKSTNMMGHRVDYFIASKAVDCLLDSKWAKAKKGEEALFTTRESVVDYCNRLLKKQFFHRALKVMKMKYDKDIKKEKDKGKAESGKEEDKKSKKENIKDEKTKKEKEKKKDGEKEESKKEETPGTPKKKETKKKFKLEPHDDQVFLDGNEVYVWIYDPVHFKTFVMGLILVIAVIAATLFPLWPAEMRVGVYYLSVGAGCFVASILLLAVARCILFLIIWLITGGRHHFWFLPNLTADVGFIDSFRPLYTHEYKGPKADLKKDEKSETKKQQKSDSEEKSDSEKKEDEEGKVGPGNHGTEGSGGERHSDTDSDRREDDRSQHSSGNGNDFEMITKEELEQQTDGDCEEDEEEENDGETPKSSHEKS
UniProt P25815: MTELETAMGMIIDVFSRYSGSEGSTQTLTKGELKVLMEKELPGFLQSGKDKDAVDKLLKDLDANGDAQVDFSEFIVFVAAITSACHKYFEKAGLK
UniProt P57060: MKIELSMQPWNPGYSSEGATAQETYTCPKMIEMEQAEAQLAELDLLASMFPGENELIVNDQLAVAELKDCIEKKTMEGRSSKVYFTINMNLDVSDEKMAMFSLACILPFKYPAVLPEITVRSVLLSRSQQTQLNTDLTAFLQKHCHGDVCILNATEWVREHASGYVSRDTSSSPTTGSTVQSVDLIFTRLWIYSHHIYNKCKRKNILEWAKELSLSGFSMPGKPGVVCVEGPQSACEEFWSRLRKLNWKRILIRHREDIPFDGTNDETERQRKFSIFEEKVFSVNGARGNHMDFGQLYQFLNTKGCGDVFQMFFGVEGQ
UniProt Q15418, whole entry: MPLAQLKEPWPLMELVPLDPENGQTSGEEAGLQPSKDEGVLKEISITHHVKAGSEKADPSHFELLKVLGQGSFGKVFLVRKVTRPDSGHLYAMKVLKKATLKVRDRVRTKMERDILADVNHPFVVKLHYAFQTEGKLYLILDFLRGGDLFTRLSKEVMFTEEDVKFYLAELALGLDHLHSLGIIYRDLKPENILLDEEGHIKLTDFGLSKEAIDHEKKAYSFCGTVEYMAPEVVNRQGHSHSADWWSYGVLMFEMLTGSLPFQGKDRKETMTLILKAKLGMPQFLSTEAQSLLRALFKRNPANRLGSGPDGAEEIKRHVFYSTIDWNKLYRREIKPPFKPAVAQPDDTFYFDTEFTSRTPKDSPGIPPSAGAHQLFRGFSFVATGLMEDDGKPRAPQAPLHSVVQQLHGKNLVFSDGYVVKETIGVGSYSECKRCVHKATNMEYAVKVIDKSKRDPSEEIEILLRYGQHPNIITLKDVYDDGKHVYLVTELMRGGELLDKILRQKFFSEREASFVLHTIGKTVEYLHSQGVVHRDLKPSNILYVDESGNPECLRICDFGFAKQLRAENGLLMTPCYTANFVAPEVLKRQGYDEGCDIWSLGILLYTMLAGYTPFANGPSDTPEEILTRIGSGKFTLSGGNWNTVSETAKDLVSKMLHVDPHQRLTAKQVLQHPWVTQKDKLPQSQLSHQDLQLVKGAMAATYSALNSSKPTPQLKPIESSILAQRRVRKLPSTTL
UniProt Q6UVJ0: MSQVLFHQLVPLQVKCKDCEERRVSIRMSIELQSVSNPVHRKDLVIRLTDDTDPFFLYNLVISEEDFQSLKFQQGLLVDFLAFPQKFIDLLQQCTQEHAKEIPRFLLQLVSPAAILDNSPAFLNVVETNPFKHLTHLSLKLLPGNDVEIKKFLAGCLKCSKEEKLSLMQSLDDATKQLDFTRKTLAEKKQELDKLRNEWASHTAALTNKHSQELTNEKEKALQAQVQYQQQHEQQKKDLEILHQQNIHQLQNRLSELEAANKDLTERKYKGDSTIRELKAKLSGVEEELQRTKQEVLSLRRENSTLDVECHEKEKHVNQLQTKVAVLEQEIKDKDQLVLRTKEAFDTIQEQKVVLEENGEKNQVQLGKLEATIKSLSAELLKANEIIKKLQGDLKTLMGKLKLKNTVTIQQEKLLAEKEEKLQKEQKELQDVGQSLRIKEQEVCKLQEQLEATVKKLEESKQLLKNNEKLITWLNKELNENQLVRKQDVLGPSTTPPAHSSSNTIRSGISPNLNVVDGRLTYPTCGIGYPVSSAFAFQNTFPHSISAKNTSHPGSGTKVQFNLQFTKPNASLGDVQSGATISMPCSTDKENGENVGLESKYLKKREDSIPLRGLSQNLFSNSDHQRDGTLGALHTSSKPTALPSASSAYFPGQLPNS
UniProt Q12904: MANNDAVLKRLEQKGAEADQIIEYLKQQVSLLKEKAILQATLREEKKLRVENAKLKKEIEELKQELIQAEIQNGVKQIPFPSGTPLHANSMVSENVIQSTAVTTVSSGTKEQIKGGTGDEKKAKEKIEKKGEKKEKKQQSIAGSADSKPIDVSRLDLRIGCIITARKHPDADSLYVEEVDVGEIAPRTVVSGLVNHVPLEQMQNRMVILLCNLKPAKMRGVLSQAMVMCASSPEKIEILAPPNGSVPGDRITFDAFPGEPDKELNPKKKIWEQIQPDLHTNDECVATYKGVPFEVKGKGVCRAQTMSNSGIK
UniProt P35244: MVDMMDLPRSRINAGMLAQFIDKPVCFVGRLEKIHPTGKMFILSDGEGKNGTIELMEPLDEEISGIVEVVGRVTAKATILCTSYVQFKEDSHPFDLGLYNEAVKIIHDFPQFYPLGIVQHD
UniProt Q7L4I2: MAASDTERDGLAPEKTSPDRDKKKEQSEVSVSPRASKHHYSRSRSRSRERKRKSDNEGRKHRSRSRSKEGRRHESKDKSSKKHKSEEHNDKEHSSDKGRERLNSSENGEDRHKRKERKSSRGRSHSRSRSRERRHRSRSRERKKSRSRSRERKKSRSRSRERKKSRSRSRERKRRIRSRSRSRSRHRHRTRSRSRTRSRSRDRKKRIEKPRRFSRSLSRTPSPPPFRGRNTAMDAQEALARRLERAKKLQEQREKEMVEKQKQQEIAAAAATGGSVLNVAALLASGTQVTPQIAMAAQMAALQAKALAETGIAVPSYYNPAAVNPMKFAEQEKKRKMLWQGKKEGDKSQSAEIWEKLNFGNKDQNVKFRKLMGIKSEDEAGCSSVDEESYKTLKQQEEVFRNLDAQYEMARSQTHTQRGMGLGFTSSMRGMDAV
UniProt O75676: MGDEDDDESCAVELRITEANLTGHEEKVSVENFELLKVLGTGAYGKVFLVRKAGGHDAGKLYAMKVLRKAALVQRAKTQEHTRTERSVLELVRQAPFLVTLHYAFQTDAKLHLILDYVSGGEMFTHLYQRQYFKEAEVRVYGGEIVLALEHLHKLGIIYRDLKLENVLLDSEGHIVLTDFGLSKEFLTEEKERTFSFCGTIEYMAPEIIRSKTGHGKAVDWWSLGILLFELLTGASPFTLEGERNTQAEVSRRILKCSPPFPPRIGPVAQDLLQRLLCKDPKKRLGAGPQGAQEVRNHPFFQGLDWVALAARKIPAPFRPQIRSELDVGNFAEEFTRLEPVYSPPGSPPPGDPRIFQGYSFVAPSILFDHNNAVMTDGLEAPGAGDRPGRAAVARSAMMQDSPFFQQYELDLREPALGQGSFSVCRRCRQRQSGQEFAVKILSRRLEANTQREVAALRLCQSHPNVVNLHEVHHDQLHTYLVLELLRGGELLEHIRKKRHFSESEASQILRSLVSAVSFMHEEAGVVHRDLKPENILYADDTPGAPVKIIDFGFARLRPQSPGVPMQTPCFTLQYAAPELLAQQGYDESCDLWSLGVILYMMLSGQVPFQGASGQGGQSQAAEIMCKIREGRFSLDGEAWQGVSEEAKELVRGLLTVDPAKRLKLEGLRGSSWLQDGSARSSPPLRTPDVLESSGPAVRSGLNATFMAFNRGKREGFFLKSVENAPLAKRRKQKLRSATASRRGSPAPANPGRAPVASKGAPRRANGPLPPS

compound: COc1ccc(Cn2ccc3cc(C)c(C(=O)NO)cc32)cc1; assay: dose-dependent thermal stabilisation call (2D-TPP, DLPTP, 10% FDR) (binary (1 = stabilised)); higher = stabilised by the compound; conditions: system: HL-60 intact cells; concentration range 0.04-10 µM
Experimental: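 2D thermal proteome profiling in intact HL-60 cells treated with BRD-3811 (0, 0.04, 0.29, 2, 10 uM) for 90 min at 37 C, then heated 3 min at one of 12 temperatures (42-63.9 C). Soluble protein was quantified by TMT10 MS. The value is the DLPTP call of the paper: dose-dependent thermal stabilisation over all temperatures at 10% FDR (F-test of a dose-response against a flat model); one experiment, one call per tested protein.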

Target | dose-dependent thermal stabilisation call
RWDD4A (UniProt Q6NW29) | inactive: 0
RPL6 (UniProt Q02878) | inactive: 0
SCD5 (UniProt Q86SK9) | inactive: 0
RTN2 (UniProt O75298) | inactive: 0
SC65 (UniProt Q92791) | inactive: 0
SAAL1 (UniProt Q96ER3) | inactive: 0
SDC1 (UniProt P18827) | inactive: 0
SAPS2 (UniProt O75170) | inactive: 0
SEC62 (UniProt Q99442) | inactive: 0
SAMSN1 (UniProt Q9NSI8) | inactive: 0
SATB2 (UniProt Q9UPW6) | inactive: 0
SEMA4D (UniProt Q92854) | inactive: 0
SAP18 (UniProt O00422) | inactive: 0
RPL22 (UniProt P35268) | inactive: 0
S100P (UniProt P25815) | inactive: 0
RUFY1 (UniProt Q96T51) | inactive: 0
RPE (UniProt Q96AT9) | inactive: 0
RPS4X (UniProt P62701) | inactive: 0

Rewritten comma-delimited: entries from further up
Target,dose-dependent thermal stabilisation call
RPL6 (UniProt Q02878),inactive: 0
SDC1 (UniProt P18827),inactive: 0
SAMSN1 (UniProt Q9NSI8),inactive: 0
SATB2 (UniProt Q9UPW6),inactive: 0
SEMA4D (UniProt Q92854),inactive: 0
RUFY1 (UniProt Q96T51),inactive: 0
RPE (UniProt Q96AT9),inactive: 0

Following part:

Target | dose-dependent thermal stabilisation call
RP6-213H19 1 | inactive: 0
RWDD2B (UniProt P57060) | inactive: 0
RPL35A (UniProt P18077) | inactive: 0
SAR1B (UniProt Q9Y6B6) | inactive: 0
SAP130 (UniProt Q9H0E3) | inactive: 0
RPL8 (UniProt P62917) | inactive: 0
RPS6KA1 (UniProt Q15418) | inactive: 0
RYBP (UniProt Q8N488) | inactive: 0
RPGR (UniProt Q92834) | inactive: 0
RSU1 (UniProt Q15404) | inactive: 0
SASS6 (UniProt Q6UVJ0) | inactive: 0
SEMA4C (UniProt Q9C0C4) | inactive: 0
RPL11 (UniProt P62913) | inactive: 0
SCYE1 (UniProt Q12904) | inactive: 0
RPA3 (UniProt P35244) | inactive: 0
RPL3 (UniProt P39023) | inactive: 0
RSRC2 (UniProt Q7L4I2) | inactive: 0
RPS6KA4 (UniProt O75676) | inactive: 0
